At least one compound was matched to its structure with a doubt left.
Tested on: acetylcholine receptor
Type: cell-based, mouse

CC(=O)OCC[N+](C)(C)C [acetylcholine]
reaction of differentiated neurons (calcium fluorescence): concentration-dependently reacted
